Measurements published in article PMC11725929.
These are yes or no findings as the source states them, for the method shown. In cells and extracts the contact can be indirect. Some entries that bind do so weakly or less than the wild type.

Target: T1, RNA helicase DHX30 (UniProt Q99PU8)
T1 sequence: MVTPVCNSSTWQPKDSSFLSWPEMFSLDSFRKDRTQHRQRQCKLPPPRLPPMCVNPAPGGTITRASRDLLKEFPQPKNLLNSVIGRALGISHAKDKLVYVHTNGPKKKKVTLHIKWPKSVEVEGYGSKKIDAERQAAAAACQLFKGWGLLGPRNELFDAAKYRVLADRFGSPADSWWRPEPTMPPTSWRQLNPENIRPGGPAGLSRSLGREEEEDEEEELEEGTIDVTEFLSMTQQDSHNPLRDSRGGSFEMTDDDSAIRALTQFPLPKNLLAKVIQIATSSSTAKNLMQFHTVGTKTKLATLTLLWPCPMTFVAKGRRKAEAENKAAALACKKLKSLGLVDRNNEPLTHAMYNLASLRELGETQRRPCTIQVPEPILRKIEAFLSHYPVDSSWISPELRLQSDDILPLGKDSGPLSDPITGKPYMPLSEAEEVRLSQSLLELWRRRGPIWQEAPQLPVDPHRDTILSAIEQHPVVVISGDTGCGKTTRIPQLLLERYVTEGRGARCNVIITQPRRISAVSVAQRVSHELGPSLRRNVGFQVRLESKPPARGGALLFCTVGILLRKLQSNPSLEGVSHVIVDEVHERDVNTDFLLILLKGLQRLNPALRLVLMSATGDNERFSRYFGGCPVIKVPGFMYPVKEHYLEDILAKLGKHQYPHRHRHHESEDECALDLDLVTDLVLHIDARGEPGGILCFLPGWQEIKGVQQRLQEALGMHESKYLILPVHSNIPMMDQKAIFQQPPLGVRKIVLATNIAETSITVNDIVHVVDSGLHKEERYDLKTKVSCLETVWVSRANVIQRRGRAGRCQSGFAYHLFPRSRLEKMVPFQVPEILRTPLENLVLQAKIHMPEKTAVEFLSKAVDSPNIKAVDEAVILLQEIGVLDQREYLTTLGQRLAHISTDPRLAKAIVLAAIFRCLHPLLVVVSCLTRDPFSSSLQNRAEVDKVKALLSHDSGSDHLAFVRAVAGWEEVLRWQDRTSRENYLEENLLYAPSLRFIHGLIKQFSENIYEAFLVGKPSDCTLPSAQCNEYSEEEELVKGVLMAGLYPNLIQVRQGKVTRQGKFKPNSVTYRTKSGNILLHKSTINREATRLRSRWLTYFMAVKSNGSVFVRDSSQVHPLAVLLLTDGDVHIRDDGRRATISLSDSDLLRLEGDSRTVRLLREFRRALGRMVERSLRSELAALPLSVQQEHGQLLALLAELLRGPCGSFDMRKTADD
Experiment: co-IP; coimmunoprecipitation between EndoG and DHX30; cells, bait, antibodies and buffer not told

binding: binds
B1: Endonuclease G (protein, UniProt O08600 45-294)
chain: ADLPALPGGPAGGTGELAKYGLPGVAQLRSRESYVLSYDPRTRGALWVLEQLRPERLRGDGDRSACDFREDDSVHAYHRATNADYRGSGFDRGHLAAAANHRWSQRAMDDTFYLSNVAPQVPHLNQNAWNNLERYSRSLTRTYQNVYVCTGPLFLPRTEADGKSYVKYQVIGKNHVAVPTHFFKVLILEAAGGQIELRSYVMPNAPVDETIPLERFLVPIESIERASGLLFVPNILARAGNLKAITAGSK
